Some of the results follow.
Compound: CC1Cc2ccccc2N1C(=O)C1CCCN(C1)C(=O)CCl (mixture of isomers) [TRIM25 ligand 11 (diastereomer mixture)]
Assay: probe-labelled cysteine peptide fold change vs DMSO (competition) (log2 fold change); higher = less target engagement (more negative = stronger competition)
Conditions: THP-1, incubation time: 4 h
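Note: competitive chemoproteomic profiling in live THP-1 cells with an iodoacetamide desthiobiotin (IA-DTB) probe, comparing probe-labelled peptide intensities in compound-treated cells against DMSO-treated controls.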

Sequences of proteins named here, by UniProt entry; tags and fusion partners are left off. A change or cut given only in a name is not applied to a line headed by its entry.
UniProt Q06481, whole entry, looked up: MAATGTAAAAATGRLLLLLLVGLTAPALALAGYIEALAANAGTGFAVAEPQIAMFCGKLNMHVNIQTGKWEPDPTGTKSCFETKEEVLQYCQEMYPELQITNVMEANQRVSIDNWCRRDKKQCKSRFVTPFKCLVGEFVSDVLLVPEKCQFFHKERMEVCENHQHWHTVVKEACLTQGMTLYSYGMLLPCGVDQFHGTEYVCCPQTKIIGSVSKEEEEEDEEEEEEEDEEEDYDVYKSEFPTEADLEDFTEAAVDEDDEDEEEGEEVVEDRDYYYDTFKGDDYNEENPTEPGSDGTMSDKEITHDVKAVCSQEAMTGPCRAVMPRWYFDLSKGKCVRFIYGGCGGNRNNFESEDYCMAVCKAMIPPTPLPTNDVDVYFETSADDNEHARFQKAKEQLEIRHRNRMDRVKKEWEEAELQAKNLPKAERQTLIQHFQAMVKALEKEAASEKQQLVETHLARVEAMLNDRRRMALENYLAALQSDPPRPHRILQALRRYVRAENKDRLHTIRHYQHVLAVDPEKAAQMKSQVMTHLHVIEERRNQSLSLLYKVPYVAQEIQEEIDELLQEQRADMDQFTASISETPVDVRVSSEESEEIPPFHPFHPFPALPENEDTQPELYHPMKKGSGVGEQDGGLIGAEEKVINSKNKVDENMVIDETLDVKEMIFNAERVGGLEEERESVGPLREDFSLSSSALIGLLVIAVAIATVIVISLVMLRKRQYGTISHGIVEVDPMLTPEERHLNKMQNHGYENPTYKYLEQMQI
UniProt Q9BZZ5: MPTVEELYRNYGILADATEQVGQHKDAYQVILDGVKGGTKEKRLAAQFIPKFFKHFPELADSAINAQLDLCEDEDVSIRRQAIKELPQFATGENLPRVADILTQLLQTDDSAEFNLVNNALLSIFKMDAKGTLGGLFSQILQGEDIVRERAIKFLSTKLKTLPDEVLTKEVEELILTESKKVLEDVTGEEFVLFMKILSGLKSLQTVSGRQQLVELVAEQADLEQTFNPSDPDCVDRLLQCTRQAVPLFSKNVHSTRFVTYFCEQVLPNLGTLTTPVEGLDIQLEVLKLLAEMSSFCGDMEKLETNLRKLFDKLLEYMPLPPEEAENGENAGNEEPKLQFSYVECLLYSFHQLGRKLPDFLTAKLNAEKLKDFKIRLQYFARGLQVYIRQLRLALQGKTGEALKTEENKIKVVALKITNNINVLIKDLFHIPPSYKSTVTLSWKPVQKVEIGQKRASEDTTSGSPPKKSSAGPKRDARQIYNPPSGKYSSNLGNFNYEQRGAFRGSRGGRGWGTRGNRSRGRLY
UniProt Q9ULJ7: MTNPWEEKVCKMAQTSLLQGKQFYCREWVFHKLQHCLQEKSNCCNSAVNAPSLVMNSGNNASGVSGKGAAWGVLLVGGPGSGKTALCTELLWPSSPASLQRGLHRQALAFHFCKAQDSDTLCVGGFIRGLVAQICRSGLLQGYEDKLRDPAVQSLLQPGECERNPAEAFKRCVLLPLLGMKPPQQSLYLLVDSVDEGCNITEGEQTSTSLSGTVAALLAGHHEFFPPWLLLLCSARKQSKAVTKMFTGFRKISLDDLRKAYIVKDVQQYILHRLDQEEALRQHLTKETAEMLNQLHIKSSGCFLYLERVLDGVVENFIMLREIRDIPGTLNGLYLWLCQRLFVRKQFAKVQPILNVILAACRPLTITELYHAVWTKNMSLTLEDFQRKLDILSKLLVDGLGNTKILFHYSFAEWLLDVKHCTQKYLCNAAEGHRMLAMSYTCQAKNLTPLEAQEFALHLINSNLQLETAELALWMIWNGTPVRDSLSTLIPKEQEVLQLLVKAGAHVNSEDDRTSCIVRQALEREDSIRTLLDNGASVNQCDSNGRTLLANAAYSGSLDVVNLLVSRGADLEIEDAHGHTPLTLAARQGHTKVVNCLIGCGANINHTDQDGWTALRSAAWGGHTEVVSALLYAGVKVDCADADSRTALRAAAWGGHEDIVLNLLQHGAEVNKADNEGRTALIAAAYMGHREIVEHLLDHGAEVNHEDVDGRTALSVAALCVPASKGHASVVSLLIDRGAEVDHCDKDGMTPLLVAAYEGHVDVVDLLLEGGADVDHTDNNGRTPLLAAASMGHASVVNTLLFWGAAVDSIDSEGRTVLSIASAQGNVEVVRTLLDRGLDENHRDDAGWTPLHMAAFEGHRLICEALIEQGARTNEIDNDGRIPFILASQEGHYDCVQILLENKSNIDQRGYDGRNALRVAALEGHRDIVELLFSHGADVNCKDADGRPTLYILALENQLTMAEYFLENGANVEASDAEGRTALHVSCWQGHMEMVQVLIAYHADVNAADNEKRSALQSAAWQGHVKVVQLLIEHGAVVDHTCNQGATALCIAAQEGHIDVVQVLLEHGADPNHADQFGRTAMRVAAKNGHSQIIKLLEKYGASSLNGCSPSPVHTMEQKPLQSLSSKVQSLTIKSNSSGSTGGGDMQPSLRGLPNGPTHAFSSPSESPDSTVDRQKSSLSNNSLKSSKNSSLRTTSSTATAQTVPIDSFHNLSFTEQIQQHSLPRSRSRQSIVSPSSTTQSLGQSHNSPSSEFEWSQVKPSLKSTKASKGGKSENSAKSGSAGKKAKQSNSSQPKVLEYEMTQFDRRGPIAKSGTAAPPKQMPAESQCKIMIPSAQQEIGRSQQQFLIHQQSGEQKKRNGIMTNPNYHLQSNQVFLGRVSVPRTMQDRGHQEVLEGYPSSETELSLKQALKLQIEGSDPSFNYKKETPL
UniProt Q9NQW6: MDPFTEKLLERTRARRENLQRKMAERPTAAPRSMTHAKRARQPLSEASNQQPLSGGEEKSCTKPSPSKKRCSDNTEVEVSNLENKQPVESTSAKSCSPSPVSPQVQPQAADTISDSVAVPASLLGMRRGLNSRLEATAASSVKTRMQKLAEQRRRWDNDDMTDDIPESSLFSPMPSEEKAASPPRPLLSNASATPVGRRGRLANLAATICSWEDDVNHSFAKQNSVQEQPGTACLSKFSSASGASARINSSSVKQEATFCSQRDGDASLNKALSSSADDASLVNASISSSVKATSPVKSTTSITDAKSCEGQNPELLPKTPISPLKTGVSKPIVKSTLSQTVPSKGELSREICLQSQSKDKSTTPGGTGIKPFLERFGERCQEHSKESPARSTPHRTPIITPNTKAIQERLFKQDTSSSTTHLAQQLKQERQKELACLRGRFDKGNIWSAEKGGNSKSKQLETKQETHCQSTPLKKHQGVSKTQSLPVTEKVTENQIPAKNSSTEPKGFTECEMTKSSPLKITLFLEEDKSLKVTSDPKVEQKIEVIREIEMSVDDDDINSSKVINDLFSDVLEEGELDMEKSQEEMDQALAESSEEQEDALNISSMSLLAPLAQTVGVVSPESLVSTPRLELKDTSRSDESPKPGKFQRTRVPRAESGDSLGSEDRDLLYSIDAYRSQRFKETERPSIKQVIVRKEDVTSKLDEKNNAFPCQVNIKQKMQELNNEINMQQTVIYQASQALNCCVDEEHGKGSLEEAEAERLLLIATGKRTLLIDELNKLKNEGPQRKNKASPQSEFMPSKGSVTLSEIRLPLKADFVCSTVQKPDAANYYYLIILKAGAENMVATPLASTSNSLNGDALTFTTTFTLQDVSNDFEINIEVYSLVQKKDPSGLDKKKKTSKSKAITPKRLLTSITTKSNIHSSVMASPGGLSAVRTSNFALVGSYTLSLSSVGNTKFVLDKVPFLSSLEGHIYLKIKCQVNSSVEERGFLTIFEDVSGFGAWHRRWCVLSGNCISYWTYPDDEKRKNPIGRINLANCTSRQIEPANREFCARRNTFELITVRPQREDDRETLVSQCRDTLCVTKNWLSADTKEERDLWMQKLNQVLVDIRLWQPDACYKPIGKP
UniProt O75179: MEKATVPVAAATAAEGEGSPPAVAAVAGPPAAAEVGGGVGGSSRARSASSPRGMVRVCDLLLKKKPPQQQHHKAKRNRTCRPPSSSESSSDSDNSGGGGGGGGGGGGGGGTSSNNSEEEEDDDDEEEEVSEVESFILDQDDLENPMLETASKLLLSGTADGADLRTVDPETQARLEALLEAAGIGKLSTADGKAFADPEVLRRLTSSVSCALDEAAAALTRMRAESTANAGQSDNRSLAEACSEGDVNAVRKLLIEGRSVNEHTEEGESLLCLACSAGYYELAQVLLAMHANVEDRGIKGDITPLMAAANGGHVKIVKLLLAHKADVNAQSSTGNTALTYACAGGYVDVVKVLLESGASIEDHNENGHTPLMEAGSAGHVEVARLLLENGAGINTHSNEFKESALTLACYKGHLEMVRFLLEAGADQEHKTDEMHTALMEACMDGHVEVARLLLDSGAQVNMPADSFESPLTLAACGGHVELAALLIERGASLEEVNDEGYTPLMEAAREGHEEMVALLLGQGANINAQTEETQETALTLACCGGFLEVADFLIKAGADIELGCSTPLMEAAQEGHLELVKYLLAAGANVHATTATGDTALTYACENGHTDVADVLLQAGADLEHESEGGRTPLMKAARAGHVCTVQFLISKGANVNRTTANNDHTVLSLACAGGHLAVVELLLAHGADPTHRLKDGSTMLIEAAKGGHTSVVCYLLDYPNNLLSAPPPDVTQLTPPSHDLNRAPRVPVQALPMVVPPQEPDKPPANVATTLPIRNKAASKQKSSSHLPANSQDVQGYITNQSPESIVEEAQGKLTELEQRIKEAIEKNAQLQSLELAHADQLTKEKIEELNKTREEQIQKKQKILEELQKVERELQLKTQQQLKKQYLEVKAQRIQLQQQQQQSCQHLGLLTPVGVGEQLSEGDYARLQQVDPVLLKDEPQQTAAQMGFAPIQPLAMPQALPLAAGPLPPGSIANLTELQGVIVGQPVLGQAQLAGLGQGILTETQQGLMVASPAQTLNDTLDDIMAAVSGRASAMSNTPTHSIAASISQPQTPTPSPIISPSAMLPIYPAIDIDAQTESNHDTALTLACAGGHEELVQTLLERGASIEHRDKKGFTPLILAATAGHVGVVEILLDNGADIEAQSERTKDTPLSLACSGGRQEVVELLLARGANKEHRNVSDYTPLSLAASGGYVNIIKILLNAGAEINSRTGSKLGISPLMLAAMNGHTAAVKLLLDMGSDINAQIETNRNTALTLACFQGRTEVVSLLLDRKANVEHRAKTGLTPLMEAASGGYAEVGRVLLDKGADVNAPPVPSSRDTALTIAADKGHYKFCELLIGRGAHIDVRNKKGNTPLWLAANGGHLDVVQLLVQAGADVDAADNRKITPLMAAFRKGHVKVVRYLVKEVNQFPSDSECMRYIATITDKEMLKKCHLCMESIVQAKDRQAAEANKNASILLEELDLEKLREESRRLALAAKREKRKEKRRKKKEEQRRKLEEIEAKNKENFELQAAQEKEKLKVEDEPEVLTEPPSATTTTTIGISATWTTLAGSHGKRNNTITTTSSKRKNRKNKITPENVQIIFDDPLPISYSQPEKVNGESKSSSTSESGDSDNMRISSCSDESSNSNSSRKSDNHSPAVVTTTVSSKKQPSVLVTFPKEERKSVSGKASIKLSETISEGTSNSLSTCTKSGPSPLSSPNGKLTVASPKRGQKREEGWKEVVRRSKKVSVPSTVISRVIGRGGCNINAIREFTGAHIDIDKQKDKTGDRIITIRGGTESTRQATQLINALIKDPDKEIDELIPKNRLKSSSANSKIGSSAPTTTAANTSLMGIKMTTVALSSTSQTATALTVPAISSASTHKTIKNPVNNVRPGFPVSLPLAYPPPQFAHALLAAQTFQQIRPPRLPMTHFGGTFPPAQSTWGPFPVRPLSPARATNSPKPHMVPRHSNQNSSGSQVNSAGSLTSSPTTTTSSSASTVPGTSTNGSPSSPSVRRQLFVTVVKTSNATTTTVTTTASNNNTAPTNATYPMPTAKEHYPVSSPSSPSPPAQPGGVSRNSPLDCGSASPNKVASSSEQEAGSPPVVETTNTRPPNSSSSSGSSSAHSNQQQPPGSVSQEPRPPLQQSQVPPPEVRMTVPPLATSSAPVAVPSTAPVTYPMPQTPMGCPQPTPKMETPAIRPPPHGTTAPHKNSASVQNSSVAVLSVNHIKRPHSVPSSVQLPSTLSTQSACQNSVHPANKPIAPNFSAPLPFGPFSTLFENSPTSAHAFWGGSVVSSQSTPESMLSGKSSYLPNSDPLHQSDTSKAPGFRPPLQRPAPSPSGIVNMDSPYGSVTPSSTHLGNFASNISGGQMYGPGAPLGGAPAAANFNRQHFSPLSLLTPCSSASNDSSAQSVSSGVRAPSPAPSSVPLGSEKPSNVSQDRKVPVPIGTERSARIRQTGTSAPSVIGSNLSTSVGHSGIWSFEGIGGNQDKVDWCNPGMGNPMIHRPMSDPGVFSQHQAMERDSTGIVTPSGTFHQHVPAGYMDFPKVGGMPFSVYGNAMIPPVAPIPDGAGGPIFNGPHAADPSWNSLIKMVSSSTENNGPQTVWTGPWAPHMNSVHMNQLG

Row | Target | probe-labelled cysteine peptide fold change (10 µM) | probe-labelled cysteine peptide fold change (50 µM)
1 | AP1B1_Q10567-3_914_IQPGNPSCTLSLK (UniProt Q10567) | 0.162 | 0.142
2 | APLP2_Q06481_160_MEVCENHQHWHTVVK (UniProt Q06481) | 0.00247 | -0.0723
3 | ANP32A_P39687_123_SLDLFNCEVTNLNDYRENVFK (UniProt P39687) | -0.235 | -0.194
4 | APAF1_O14727_258_AFDSQCQILLTTR (UniProt O14727) | 0.17 | 0.0371
5 | API5_Q9BZZ5_297_LLAEMSSFCGDMEK (UniProt Q9BZZ5) | 0.118 | 0.112
6 | APLP2_Q06481_310_AVCSQEAMTGPCR (UniProt Q06481) | -0.149 | -0.154
7 | AP2B1_P63010_123_ITEYLCEPLRK (UniProt P63010) | – | -0.0367
8 | ANKRD11_Q6UB99_1712_EVLPASPRPDQSRPTGVPTPTSVLSCPSYEEVMHTPR (UniProt Q6UB99) | 0.0772 | 0.125
9 | ANKFY1_Q9P2R3_742_AIDENNEPTACFLIR (UniProt Q9P2R3) | 0.0474 | -0.187
10 | AP1G1_O43747_106_QDVHLLMTNCIK (UniProt O43747) | 0.246 | 0.287
11 | AP5M1_Q9H0R1_354_NNFEFCEAHIPFYNR (UniProt Q9H0R1) | 0.0151 | 0.0972
12 | ANKIB1_Q9P2G1_640_ETEGGCPDTTFIEDAVHVLLK (UniProt Q9P2G1) | -0.196 | -0.125
13 | ANKRD44_Q8N8A2_914_DLNTPLHLACSK (UniProt Q8N8A2) | -0.0625 | -0.0939
14 | APLP2_Q06481_343_FIYGGCGGNR (UniProt Q06481) | -0.0583 | -0.102
15 | ANKRD28_O15084_201_LLVSHGAEVTCK (UniProt O15084) | 0.0847 | 0.138
16 | ANKRD50_Q9ULJ7_442_MLAMSYTCQAK (UniProt Q9ULJ7) | -0.0145 | -0.11
17 | ANLN_Q9NQW6_437_ELACLR (UniProt Q9NQW6) | -0.177 | -0.148
18 | ANKRD46_Q86W74_61_GNVDICQLLHK (UniProt Q86W74) | -0.0151 | 0.00667
19 | ANKRD50_Q9ULJ7_941_DIVELLFSHGADVNCK (UniProt Q9ULJ7) | 0.0184 | 0.185
20 | APAF1_O14727_675_FIATCSVDKK (UniProt O14727) | 0.277 | 0.264

Another view of some results above.

| Row | Target | probe-labelled cysteine peptide fold change (10 µM) | probe-labelled cysteine peptide fold change (50 µM) |
| --- | --- | --- | --- |
| 4 | APAF1_O14727_258_AFDSQCQILLTTR (UniProt O14727) | 0.17 | 0.0371 |
| 5 | API5_Q9BZZ5_297_LLAEMSSFCGDMEK (UniProt Q9BZZ5) | 0.118 | 0.112 |

The list goes on.

Row | Target | probe-labelled cysteine peptide fold change (10 µM) | probe-labelled cysteine peptide fold change (50 µM)
21 | AP2B1_P63010_241_DDREAQSICER (UniProt P63010) | -0.0581 | -0.0343
22 | ANXA6_P08133_59_QEVCQSYK (UniProt P08133) | -0.0813 | -0.0296
23 | ANKMY2_Q8IV38_74_HGADVNCHQHEHGYTALMFAALSGNK (UniProt Q8IV38) | 0.0837 | 0.376
24 | APOBEC3F_Q8IUX4_36_RNTVWLCYEVK (UniProt Q8IUX4) | 0.0263 | 0.162
25 | ANKRD44_Q8N8A2_547_QCLELLLER (UniProt Q8N8A2) | 0.182 | 0.355
26 | AP2A2_O94973_491_TVFEALQAPACHENLVK (UniProt O94973) | 0.247 | -0.157
27 | ANLN_Q9NQW6_353_EICLQSQSK (UniProt Q9NQW6) | -0.116 | -0.167
28 | APOBEC3C_Q9NRW3_70_CFLSWFCDDILSPNTK (UniProt Q9NRW3) | 0.14 | 0.0233
29 | APIP_Q96GX9_188_MAHAMNEYPDSCAVLVR (UniProt Q96GX9) | 0.106 | 0.183
30 | AP1G2_O75843_125_NDLSQGIQPVQGLALCTLSTMGSAEMCR (UniProt O75843) | 0.0046 | -0.109
31 | ANKRD17_O75179_1260_NTALTLACFQGR (UniProt O75179) | -0.0141 | 0.0193
32 | APOBEC3B_Q9UH17_354_QGCPFQPWDGLEEHSQALSGR (UniProt Q9UH17) | 0.0241 | 0.188
33 | ANKRD44_Q8N8A2_819_FIGNPFTPLHCAIINDHGNCASLLLGAIDSSIVSCR (UniProt Q8N8A2) | 0.0606 | -0.103
34 | AP2A1_O95782_533_FHLCSVATR (UniProt O95782) | -0.022 | 0.171
35 | AP1G1_O43747_392_ELLYFLDSCEPEFK (UniProt O43747) | 0.249 | 0.283
36 | ANP32B_Q92688_27_ELVLDNCK (UniProt Q92688) | -0.0549 | -0.0554
37 | ANKRD27_Q96NW4_39_VAQIHGIVLVPCK (UniProt Q96NW4) | 0.0719 | 0.0718
38 | ANKRD17_O75179_210_LTSSVSCALDEAAAALTR (UniProt O75179) | 0.198 | 0.105
39 | ANKRD44_Q8N8A2_704_EANVDTVDILGCTALHR (UniProt Q8N8A2) | 0.0909 | -0.0747
